Out of some 580,000 compounds screened, about 6,100 (1.1%) were called active. Inconclusive results, whose numbers are uncertain, are shown with a selection of clear calls. The call rests on the fitted dose curve; in most records, active means well fitted inhibition curve with a large enough effect; inconclusive means small, poorly fitted or top-dose-only effect, or another doubt; inactive means no such curve, though single readings can be large or run the other way. Potencies of inconclusive entries are doubtful fits and often do not repeat.
These compounds were tested against Polyunsaturated fatty acid lipoxygenase ALOX12 (Homo sapiens) (UniProt P18054) (assay: Primary qHTS assay for inhibitors of human arachidonate 12S-lipoxygenase (ALOX12): Round 2). Details: purified 12hLO, xylenol orange hydroperoxide absorbance; activity change, negative = inhibition: at 108 µM (top of the series) unless noted.
Method in brief: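 Hydroperoxide product was detected by ferrous iron/xylenol orange as the 573 to 405 nm absorbance ratio. Arachidonic acid at 40 uM (final) was turned over for 30 min at room temperature by 150 nM human 12hLO, pH 7.0 Hepes buffer, after 15 min compound preincubation.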
On the % scale 0 is the no-effect control and ±100 the full control effect; potency means the concentration at half of the fitted maximal effect.

Chains of the proteins cited; added tags and fusions are not shown. Lines headed by an entry give the natural chain unless they say otherwise; changes in a name come on top.
UniProt P18054: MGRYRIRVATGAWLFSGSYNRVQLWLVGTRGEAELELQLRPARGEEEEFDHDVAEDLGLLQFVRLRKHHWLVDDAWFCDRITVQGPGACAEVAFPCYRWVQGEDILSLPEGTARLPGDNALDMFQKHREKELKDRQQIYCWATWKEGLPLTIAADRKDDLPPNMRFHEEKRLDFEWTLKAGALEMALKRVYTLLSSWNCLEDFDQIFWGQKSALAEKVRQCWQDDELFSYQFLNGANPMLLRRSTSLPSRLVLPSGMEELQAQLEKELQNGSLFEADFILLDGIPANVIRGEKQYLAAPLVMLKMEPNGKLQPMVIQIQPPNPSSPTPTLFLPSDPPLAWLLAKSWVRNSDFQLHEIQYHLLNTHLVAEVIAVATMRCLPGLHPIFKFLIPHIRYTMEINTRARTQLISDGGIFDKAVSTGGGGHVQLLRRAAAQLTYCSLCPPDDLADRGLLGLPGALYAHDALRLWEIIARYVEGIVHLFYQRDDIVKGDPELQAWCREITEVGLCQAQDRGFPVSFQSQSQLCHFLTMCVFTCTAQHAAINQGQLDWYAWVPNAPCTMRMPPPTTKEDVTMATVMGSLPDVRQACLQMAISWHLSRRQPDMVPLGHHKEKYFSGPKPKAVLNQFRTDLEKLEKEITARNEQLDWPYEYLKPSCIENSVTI

SMILES | activity change, negative = inhibition | Potency
O=C(N/N=C/c1ccccn1)c1ccncc1 | inactive: 5.27% | –
CC(C)N1C(=O)C(CC(=O)O)=C2CCCCC21 (configuration not stated) | inactive: 0.444% | –
CC1CSc2ccc(S(=O)(=O)NC3CCN(Cc4ccccc4)CC3)cc2NC1=O (configuration not stated) | inactive: -0.405% | –
Cc1ccc(N(CC(=O)NCCc2ccccc2)C(=O)CCC(=O)Nc2cc(C)ccn2)cc1 | – | inconclusive: 126 µM [inhibitor, single point]
CCOCCCNc1oc(/C=C/c2cccc(OC)c2)nc1C#N | – | inconclusive: 35.5 µM [inhibitor, single point]
CCN(C(=O)c1cnc(NC(C)C)cc1C(F)(F)F)c1ccc(Cl)cc1Cl | inactive: 6.05% | –
CC(=O)Oc1ccc(-c2ccc(C(=O)NC34CC5CC(CC(C5)C3)C4)cc2)cc1 | – | inconclusive: 100 µM [inhibitor, partial curve, poor fit]
O=C1CC2(CCN(CC3CC3)CC2)Oc2cc(Cl)ccc21 | – | inconclusive: 10 µM [inhibitor, full curve]
CCOC(=O)N1C(=O)C[C@](Sc2ccc(C)cc2)(C(=O)OC)[C@H]1c1ccccc1 | – | inconclusive: 17.8 µM [inhibitor, partial curve, poor fit]
O=C(CCCC(=O)Nc1cccc(Br)c1)N/N=C/c1cc([N+](=O)[O-])ccc1O | – | inconclusive: 15.8 µM [inhibitor, full curve, poor fit]
Cc1nc2c(=O)[nH]c(=S)n(C)c2nc1C | – | active: 31.6 µM
O=C(/C=C/c1cccc(F)c1)NC1CCN(Cc2ccccc2)CC1 | – | inconclusive: 89.1 µM [inhibitor, partial curve, poor fit]
Cc1ccccc1Nc1nc(CSc2nnnn2C2CC2)cs1 | – | active: 28.2 µM
O=C(N[C@H]1CC[C@@]23CCCN2C(=O)CCC[C@H]3[C@H]1Cc1ccccc1)C1CCOC1 (some centres not stated) | inactive: -6.32% | –
N#Cc1ccc(C(=O)N2CCOC[C@H](Oc3cnccn3)C2)cc1 | inactive: 25.5% [at 176 µM] | –
CCOC(=O)c1ccc(N2C(=O)c3n[nH]c(C)c3C2c2ccc(OC)c(OC)c2)cc1 (configuration not stated) | inactive: -5.2% | –
O=c1[nH]c(C2CCN(S(=O)(=O)c3ccccc3F)CC2)nc2c1nnn2Cc1ccc(OC(F)(F)F)cc1 | inactive: 43.6% | –
Cc1cc(C)c2c(c1)[C@@H]1C=CC[C@@H]1[C@H](c1ccc(S(=O)(=O)N3CCOCC3)cc1)N2 | – | inconclusive: 56.2 µM [inhibitor, partial curve, poor fit]
CCc1c(C)sc(NC(=O)C2CCCCC2)c1C#N | – | active: 8.91 µM
NC(=O)C1CCCN(C(=O)c2ccc(NC(=O)c3cccs3)cc2)C1 (configuration not stated) | inactive: 79.4% | –
CCOc1ccc(Sc2cc(C(=O)NCCc3ccc(OC)c(OC)c3)c3ccccc3n2)cc1 | inactive: -20.1% | –
Oc1ccc2ccccc2c1C=Nc1ccc(Cl)cn1 | inactive: -14% | –
CC1(C)Cc2nc3sc(C(=O)NCCCO)c(N)c3cc2CO1 | – | inconclusive: 3.16 µM [inhibitor, partial curve, poor fit]
Cc1ccccc1Oc1ccc(NC(=O)C2CC=CCC2C(=O)O)cc1 (configuration not stated) | inactive: 15.6% | –

SMILES | activity change, negative = inhibition | Potency
CCn1c(=NC(=O)CSC(C)=O)sc2cc(F)ccc21 | inactive: -0.99% | –
CN(C)CCOCCOc1ccc(Cl)cc1Br | – | inconclusive: 20 µM [inhibitor, partial curve, poor fit]
N=C(N)SCCSc1cc(Cl)ccc1Cl | – | inconclusive: 50.1 µM [inhibitor, partial curve, poor fit]
O=C(NCCC1=CCCCC1)Nc1ccc2nsnc2c1 | – | inconclusive: 35.5 µM [inhibitor, partial curve, poor fit]
CC(C)CN(c1ccccc1)S(=O)(=O)c1nnc(NC(=O)c2ccco2)s1 | – | inconclusive: 12.6 µM [inhibitor, partial curve, poor fit]
O=C(Nc1ccccc1)Nc1cccc2nsnc12 | – | active: 39.8 µM
Cc1c(CNCCCc2ccccc2)c(C(=O)O)c(C)n1Cc1ccc(Cl)cc1 | – | inconclusive: 50.1 µM [inhibitor, partial curve, poor fit]
CC(C)NC(=O)NC1CC2(CCN(C(=O)Cc3ccc(O)cc3)CC2)c2ccccc21 (configuration not stated) | – | inconclusive: 5.62 µM [inhibitor, full curve, poor fit]
Cc1noc2c(-c3ccncc3)cc(-c3cccs3)nc12 | inactive: 8.29% [at 176 µM] | –
CC1CCCN(S(=O)(=O)c2ccc(S(=O)(=O)NC(C)c3cccs3)cc2)C1 (configuration not stated) | – | inconclusive: 6.31 µM [inhibitor, full curve]
Cc1cnc(CNc2ncncc2-c2ccccc2Cl)cn1 | – | inconclusive: 50.1 µM [inhibitor, partial curve, poor fit]
CN1CCn2cnc(C(=O)NCC(=O)OC(C)(C)C)c2C1=O | – | inconclusive: 100 µM [inhibitor, single point]
Cc1nn(CC(=O)Nc2ccc(C(C)C)cc2)c2ccccc12 | inactive: -14.3% | –
Cc1cc(=O)[nH]c2nnc(SCc3cccc(F)c3)n12 | – | inconclusive: 89.1 µM [inhibitor, partial curve, poor fit]
O=C(NCCSCc1ccco1)Nc1cccc(Cl)c1 | – | inconclusive: 44.7 µM [inhibitor, partial curve, poor fit]
CCOC(=O)c1ccc(Nc2cc3ccccc3c(=O)[nH]2)cc1 | – | inconclusive: 3.55 µM [inhibitor, full curve]
Cc1cccc(NC(=O)C(Cc2ccccc2)c2nn[nH]n2)c1C (configuration not stated) | – | inconclusive: 39.8 µM [inhibitor, partial curve, poor fit]
CNC(=O)[C@@H]1CN(C(=O)c2cc3ccccc3[nH]2)C[C@H]1c1nc(C)no1 | – | inconclusive: 31.6 µM [inhibitor, full curve, poor fit]
CC(=O)N1c2c(ccc3ccccc23)C(C)CC12CCCCC2 (configuration not stated) | – | inconclusive: 0.631 µM [inhibitor, full curve, poor fit]
Cc1cccc(N2CCN(C(=O)Nc3ccc(F)cc3)CC2C)c1 (configuration not stated) | – | inconclusive: 56.2 µM [inhibitor, partial curve, poor fit]
CC(C)Cn1nc(C(=O)OCC(=O)Nc2ccc(OC(F)(F)F)cc2)c2ccccc2c1=O | inactive: 3.44% | –
Cn1cnc(S(=O)(=O)N2c3ccccc3CC2c2noc(C3CCOCC3)n2)c1 (configuration not stated) | inactive: 72.3% | –
Cc1[nH]c2ccccc2c1CCNCc1ccc(C=CC(=O)NO)cc1 | – | inconclusive: 21.7 µM [inhibitor, single point]
CS(=O)(=O)c1ccc(OC[C@H]2C[C@@H](NC(=O)c3cccnc3)[C@H](O)[C@@H]2O)cc1 | – | inconclusive: 15.8 µM [inhibitor, full curve]

SMILES | activity change, negative = inhibition | Potency
Cc1oc(-c2cccc(Cl)c2)nc1CN1CCC(C(=O)NCc2ccco2)CC1 | – | inconclusive: 44.7 µM [inhibitor, partial curve, poor fit]
O=C(Nc1nc2c(F)cccc2s1)C1CC1 | inactive: 8.73% | –
O=[N+]([O-])c1ccc(CN2CCN(c3ccc([N+](=O)[O-])cc3)CC2)cc1 | – | active: 3.55 µM
O=C(Nc1ccc2nc[nH]c(=O)c2c1)c1ccc(Br)cc1Cl | – | inconclusive: 56.2 µM [inhibitor, single point]
CCCc1n[nH]c2c1C(=O)CC(C)(C)C2 | inactive: -9.83% | –
CSc1nc2ccc(S(=O)(=O)NC3CCCCC3)cc2s1 | – | inconclusive: 89.1 µM [inhibitor, single point]
Cc1c(CC(=O)NC(C)C)c2c(n1Cc1ccc(F)cc1)CCCC2=O | inactive: 7.13% | –
CCOc1ccc(-c2ccc(NS(=O)(=O)c3cc(C)ccc3OC)cc2)nn1 | – | inconclusive: 79.4 µM [inhibitor, partial curve, poor fit]
Cc1oc2cc(OCC(=O)O)ccc2c(=O)c1Oc1ccccc1 | – | inconclusive: 44.7 µM [inhibitor, partial curve, poor fit]
COc1ccc2c(=O)c(-c3ccccc3)coc2c1C | – | active: 31.6 µM
COc1ccc(-c2sc3ccccc3c2C#CC2(O)CCCCC2)cc1 | – | inconclusive: 39.8 µM [inhibitor, partial curve, poor fit]
CN(C)CCCNc1nc2sc3c(c2c(=O)n1CCc1ccccc1)CCCCC3 | – | inconclusive: 100 µM [inhibitor, single point]
O=S(=O)(c1cccc(F)c1)N1CCN(c2ncnc3scc(-c4ccc(F)cc4)c23)CC1 | inactive: 2.57% | –
CC(CCc1ccccc1)NC(=O)CN1CCN(c2ccc(O)cc2)CC1 (configuration not stated) | – | inconclusive: 14.1 µM [inhibitor, full curve, poor fit]
Cc1cnccc1N1CCCN(C(=O)C2CCOc3ccccc3C2)CC1 (configuration not stated) | inactive: 16.7% | –
O=[N+]([O-])c1cccc(S(=O)(=O)c2ccc(N3CCCCC3)c([N+](=O)[O-])c2)c1 | inactive: -2.69% | –
N#C/C(=N\Nc1ccc(Cl)cc1)C(N)=S | – | inconclusive: 44.7 µM [inhibitor, partial curve, poor fit]
COc1ccc(C2NCCc3c2[nH]c2ccccc32)cc1COc1ccc(F)cc1 (configuration not stated) | – | inconclusive: 50.1 µM [inhibitor, partial curve, poor fit]
COc1ccc(C(NC(=O)Cc2ccccc2)c2nccc3cc(OC)c(OC)cc23)cc1OC (configuration not stated) | – | inconclusive: 3.98 µM [inhibitor, full curve, poor fit]
Fc1ccc(CSc2ncc(-c3ccccc3)nn2)cc1 | inactive: -31.4% | –
Cc1nc2c(C)cccc2c(SC(=N)N)c1CC=C(Cl)Cl | – | inconclusive: 100 µM [inhibitor, single point]
CCc1ccc(CN(C)Cc2nc(Cc3cccc(C(F)(F)F)c3)no2)nc1 | inactive: 2.75% | –
O=C(N[C@@H]1CCN(C(=O)CCCn2cccn2)C[C@H]1O)c1ccccn1 | inactive: 14.5% | –
COc1ccc(-c2c(C)noc2-c2ccc(O)cc2O)cc1OC | – | inconclusive: 50.1 µM [inhibitor, single point]

Sorted by molar mass (rising): some entries from above.
SMILES | activity change, negative = inhibition | Potency
CC(C)N1C(=O)C(CC(=O)O)=C2CCCCC21 (configuration not stated) | inactive: 0.444% | –
Oc1ccc2ccccc2c1C=Nc1ccc(Cl)cn1 | inactive: -14% | –
O=C1CC2(CCN(CC3CC3)CC2)Oc2cc(Cl)ccc21 | – | inconclusive: 10 µM [inhibitor, full curve]
CC(=O)N1c2c(ccc3ccccc23)C(C)CC12CCCCC2 (configuration not stated) | – | inconclusive: 0.631 µM [inhibitor, full curve, poor fit]
CN1CCn2cnc(C(=O)NCC(=O)OC(C)(C)C)c2C1=O | – | inconclusive: 100 µM [inhibitor, single point]
Cc1cccc(N2CCN(C(=O)Nc3ccc(F)cc3)CC2C)c1 (configuration not stated) | – | inconclusive: 56.2 µM [inhibitor, partial curve, poor fit]
CC1(C)Cc2nc3sc(C(=O)NCCCO)c(N)c3cc2CO1 | – | inconclusive: 3.16 µM [inhibitor, partial curve, poor fit]
Cc1nc2c(C)cccc2c(SC(=N)N)c1CC=C(Cl)Cl | – | inconclusive: 100 µM [inhibitor, single point]
Cc1[nH]c2ccccc2c1CCNCc1ccc(C=CC(=O)NO)cc1 | – | inconclusive: 21.7 µM [inhibitor, single point]
COc1ccc(-c2sc3ccccc3c2C#CC2(O)CCCCC2)cc1 | – | inconclusive: 39.8 µM [inhibitor, partial curve, poor fit]
CCc1ccc(CN(C)Cc2nc(Cc3cccc(C(F)(F)F)c3)no2)nc1 | inactive: 2.75% | –
CCOc1ccc(-c2ccc(NS(=O)(=O)c3cc(C)ccc3OC)cc2)nn1 | – | inconclusive: 79.4 µM [inhibitor, partial curve, poor fit]
CC(C)CN(c1ccccc1)S(=O)(=O)c1nnc(NC(=O)c2ccco2)s1 | – | inconclusive: 12.6 µM [inhibitor, partial curve, poor fit]
CCN(C(=O)c1cnc(NC(C)C)cc1C(F)(F)F)c1ccc(Cl)cc1Cl | inactive: 6.05% | –
CCOC(=O)c1ccc(N2C(=O)c3n[nH]c(C)c3C2c2ccc(OC)c(OC)c2)cc1 (configuration not stated) | inactive: -5.2% | –
CN(C)CCCNc1nc2sc3c(c2c(=O)n1CCc1ccccc1)CCCCC3 | – | inconclusive: 100 µM [inhibitor, single point]
CC1CSc2ccc(S(=O)(=O)NC3CCN(Cc4ccccc4)CC3)cc2NC1=O (configuration not stated) | inactive: -0.405% | –
Cc1ccc(N(CC(=O)NCCc2ccccc2)C(=O)CCC(=O)Nc2cc(C)ccn2)cc1 | – | inconclusive: 126 µM [inhibitor, single point]
O=S(=O)(c1cccc(F)c1)N1CCN(c2ncnc3scc(-c4ccc(F)cc4)c23)CC1 | inactive: 2.57% | –
CCOc1ccc(Sc2cc(C(=O)NCCc3ccc(OC)c(OC)c3)c3ccccc3n2)cc1 | inactive: -20.1% | –

Source: PubChem BioAssay AID1671190 (National Center for Advancing Translational Sciences (NCATS), 2021)
